# In the M2OR odorant receptor database:
# Only a part is listed here, and it is no random draw. Calls are pooled over several reports, among them a noisy single-well screen. This is one part of the list.
# How the values were obtained:
# Conditions in all cases: stereoisomer not certain
# [1] = test system: T1, OR6B1
# T1 sequence (whole entry): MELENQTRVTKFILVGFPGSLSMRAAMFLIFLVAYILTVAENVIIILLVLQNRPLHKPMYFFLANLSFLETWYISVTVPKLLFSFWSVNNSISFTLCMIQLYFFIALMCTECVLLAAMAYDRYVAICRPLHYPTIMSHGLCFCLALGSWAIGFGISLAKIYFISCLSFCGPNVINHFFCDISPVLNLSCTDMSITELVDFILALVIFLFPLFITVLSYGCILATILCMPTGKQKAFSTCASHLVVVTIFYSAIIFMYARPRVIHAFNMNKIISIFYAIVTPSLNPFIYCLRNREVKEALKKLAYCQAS
# How it was run: (§1)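 Whether a receptor–molecule pair is responsive (active) rests on the original authors' judgment that its measured signal was statistically different from baseline. Pairs without that judgment are non-responsive (inactive). Sources used varied assay methods, commonly transient luciferase assays in mammalian cell lines.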
# [2] = test system: T2, OR6B2
# T2 sequence (whole entry): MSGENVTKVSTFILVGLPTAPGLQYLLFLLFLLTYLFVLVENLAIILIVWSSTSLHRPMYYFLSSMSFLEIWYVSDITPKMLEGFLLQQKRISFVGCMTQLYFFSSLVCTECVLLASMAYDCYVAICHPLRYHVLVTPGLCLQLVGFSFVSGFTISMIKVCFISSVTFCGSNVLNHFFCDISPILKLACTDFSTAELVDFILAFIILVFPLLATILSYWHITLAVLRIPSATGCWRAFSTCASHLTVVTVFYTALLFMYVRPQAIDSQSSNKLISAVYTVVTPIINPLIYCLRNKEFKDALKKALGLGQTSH
# How it was run: as §1
# [3] = test system: T3, OR6B3
# T3 sequence (whole entry): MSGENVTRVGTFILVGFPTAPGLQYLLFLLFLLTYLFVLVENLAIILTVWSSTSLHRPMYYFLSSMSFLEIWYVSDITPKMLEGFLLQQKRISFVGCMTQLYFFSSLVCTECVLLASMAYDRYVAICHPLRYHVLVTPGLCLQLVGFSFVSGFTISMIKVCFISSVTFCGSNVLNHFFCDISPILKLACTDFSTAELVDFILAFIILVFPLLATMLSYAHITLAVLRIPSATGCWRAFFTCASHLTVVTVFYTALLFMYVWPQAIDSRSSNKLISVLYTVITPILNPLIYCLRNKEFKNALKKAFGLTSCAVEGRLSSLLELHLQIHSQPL
# How it was run: as §1
# [4] = test system: T4, OR6C1
# T4 sequence (whole entry): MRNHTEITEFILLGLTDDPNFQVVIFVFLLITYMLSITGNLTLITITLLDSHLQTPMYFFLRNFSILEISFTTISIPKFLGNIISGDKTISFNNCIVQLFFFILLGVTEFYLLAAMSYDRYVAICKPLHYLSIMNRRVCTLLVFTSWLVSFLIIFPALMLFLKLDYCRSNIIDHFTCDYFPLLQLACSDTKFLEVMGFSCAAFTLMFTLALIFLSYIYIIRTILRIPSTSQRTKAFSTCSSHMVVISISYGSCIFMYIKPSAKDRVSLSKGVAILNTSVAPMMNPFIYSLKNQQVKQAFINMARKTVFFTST
# How it was run: as §1
# [5] = target: T5, OR6C2 (Homo sapiens) (UniProt Q9NZP2)
# T5 sequence (whole entry): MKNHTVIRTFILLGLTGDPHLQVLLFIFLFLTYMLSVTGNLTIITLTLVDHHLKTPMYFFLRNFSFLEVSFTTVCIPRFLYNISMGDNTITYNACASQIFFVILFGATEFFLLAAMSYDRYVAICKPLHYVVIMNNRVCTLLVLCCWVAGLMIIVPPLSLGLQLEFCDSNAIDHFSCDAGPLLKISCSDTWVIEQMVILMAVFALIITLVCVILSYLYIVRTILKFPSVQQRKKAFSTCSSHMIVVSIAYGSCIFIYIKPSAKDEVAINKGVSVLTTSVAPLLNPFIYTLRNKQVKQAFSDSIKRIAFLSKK
# How it was run: as §1
# [6] = target: T6, OR6C3 (Homo sapiens) (UniProt Q9NZP0)
# T6 sequence (whole entry): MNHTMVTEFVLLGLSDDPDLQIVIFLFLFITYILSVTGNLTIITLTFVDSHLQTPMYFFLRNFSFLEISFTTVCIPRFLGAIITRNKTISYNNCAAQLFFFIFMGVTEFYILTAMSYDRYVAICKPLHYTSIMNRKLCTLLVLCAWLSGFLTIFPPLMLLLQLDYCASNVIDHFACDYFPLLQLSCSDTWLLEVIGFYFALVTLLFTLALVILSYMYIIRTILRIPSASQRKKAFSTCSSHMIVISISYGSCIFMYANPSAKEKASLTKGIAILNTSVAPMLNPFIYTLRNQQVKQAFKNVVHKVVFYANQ
# How it was run: as §1
# [7] = test system: T7, OR6C4
# T7 sequence (whole entry): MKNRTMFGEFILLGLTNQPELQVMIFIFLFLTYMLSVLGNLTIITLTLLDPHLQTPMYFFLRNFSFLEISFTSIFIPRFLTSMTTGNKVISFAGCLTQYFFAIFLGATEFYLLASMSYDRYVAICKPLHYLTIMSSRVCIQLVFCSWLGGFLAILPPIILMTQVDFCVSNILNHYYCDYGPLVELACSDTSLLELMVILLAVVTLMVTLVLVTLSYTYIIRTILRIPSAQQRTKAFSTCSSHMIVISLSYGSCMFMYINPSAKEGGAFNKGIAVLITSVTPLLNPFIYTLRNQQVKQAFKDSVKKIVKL
# How it was run: as §1
# [8] = target: T8, OR6C6 (Homo sapiens) (UniProt A6NF89)
# T8 sequence (whole entry): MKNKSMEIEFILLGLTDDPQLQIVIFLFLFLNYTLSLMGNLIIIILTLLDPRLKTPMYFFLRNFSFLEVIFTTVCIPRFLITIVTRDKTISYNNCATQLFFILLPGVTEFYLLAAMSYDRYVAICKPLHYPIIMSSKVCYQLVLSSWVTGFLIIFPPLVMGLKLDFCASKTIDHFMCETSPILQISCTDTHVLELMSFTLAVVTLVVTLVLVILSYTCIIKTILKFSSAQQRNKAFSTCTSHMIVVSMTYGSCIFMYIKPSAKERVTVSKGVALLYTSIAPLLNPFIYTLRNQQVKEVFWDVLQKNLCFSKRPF
# How it was run: as §1
# [9] = target: T9, OR6C65 (Homo sapiens) (UniProt A6NJZ3)
# T9 sequence (whole entry): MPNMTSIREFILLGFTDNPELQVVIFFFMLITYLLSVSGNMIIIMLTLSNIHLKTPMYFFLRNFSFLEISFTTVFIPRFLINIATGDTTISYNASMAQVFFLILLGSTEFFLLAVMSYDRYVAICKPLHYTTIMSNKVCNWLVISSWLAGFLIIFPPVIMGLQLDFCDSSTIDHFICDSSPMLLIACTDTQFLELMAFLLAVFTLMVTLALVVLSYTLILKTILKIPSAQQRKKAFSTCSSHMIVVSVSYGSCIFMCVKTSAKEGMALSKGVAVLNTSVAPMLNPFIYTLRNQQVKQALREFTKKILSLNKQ
# How it was run: as §1
# [10] = target: T10, OR6C74 (Homo sapiens) (UniProt A6NCV1)
# T10 sequence (whole entry): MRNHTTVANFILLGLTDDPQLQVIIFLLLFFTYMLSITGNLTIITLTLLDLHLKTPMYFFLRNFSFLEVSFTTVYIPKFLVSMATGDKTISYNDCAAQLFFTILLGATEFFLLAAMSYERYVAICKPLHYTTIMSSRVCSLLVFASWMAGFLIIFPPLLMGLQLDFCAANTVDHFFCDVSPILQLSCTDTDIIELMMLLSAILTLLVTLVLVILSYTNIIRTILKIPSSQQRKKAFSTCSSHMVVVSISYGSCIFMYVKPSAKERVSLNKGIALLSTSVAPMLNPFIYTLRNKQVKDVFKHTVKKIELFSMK
# How it was run: as §1
# [11] = target: T11, OR6C75 (Homo sapiens) (UniProt A6NL08)
# T11 sequence (whole entry): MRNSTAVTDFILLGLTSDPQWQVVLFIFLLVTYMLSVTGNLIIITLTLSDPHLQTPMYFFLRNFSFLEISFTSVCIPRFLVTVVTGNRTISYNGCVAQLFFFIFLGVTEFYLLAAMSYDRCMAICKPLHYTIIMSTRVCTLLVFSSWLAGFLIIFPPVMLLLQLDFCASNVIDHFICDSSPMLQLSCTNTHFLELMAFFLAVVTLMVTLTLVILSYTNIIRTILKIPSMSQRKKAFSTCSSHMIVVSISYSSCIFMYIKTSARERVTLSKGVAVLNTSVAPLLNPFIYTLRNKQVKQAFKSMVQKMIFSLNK
# How it was run: as §1
# [12] = target: T12, OR6C76 (Homo sapiens) (UniProt A6NM76)
# T12 sequence (whole entry): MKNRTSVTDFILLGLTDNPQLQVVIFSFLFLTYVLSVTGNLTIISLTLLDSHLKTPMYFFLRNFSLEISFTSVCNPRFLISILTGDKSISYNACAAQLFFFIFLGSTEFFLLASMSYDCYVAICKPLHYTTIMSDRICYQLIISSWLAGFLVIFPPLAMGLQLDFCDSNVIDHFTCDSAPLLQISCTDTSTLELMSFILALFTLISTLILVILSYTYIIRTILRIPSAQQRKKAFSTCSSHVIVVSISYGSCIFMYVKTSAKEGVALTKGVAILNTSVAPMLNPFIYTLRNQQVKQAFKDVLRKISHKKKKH
# How it was run: as §1
# [13] = target: T13, OR6F1 (Homo sapiens) (UniProt Q8NGZ6)
# T13 sequence (whole entry): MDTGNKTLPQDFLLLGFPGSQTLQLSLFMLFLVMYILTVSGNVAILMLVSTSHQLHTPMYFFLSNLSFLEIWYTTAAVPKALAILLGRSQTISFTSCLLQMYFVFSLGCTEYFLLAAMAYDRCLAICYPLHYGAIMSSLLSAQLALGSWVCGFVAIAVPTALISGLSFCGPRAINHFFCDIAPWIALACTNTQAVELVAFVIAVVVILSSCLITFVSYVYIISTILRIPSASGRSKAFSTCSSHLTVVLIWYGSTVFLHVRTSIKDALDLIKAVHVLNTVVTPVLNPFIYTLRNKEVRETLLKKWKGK
# How it was run: as §1
# 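Further: active if original authors judged signal statistically different from baseline.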
Structure (SMILES),odorant receptor agonist call [1],odorant receptor agonist call [2],odorant receptor agonist call [3],odorant receptor agonist call [4],odorant receptor agonist call [5],odorant receptor agonist call [6],odorant receptor agonist call [7],odorant receptor agonist call [8],odorant receptor agonist call [9],odorant receptor agonist call [10],odorant receptor agonist call [11],odorant receptor agonist call [12],odorant receptor agonist call [13]
CCC1(O)C2(C)CCC(C2)C1(C)C (stereo not given),inactive,inactive,inactive,inactive,inactive,inactive,inactive,inactive,inactive,inactive,inactive,inactive,inactive
CC(C)(C)c1ccc(CCC=O)cc1,inactive,inactive,inactive,inactive,inactive,inactive,inactive,inactive,inactive,inactive,inactive,inactive,inactive
CC1=NC(C)SC1C (stereo not given),active,inactive,inactive,inactive,inactive,inactive,inactive,inactive,inactive,inactive,inactive,inactive,inactive
CCCCCCOC(=O)CCC,inactive,inactive,inactive,inactive,inactive,inactive,inactive,inactive,inactive,inactive,inactive,inactive,inactive
CCCC(=O)O,inactive,inactive,inactive,inactive,inactive,inactive,inactive,inactive,inactive,inactive,inactive,inactive,inactive
C=CCc1ccc(OC)c(OC)c1,inactive,inactive,inactive,inactive,inactive,inactive,inactive,inactive,inactive,inactive,inactive,inactive,inactive
CC(C)C(=O)O,inactive,inactive,inactive,inactive,inactive,inactive,inactive,inactive,inactive,inactive,inactive,inactive,inactive
CCCCCOC(C)=O,inactive,inactive,inactive,inactive,inactive,inactive,inactive,inactive,inactive,inactive,inactive,inactive,active
CC=Cc1ccc(O)c(OC)c1,inactive,inactive,inactive,inactive,inactive,inactive,inactive,inactive,inactive,inactive,inactive,inactive,inactive
CC12CCC(C1)C(C)(C)C2=O (stereo not given),inactive,inactive,inactive,inactive,inactive,inactive,inactive,inactive,inactive,inactive,inactive,inactive,inactive

# Individual results from the entries so far:
# odorant receptor agonist call [5], C=CCc1ccc(OC)c(OC)c1 reads inactive
# odorant receptor agonist call [9], CCCCCCOC(=O)CCC reads inactive
